Data: the supplement of paper PMC7666118
The other results are listed elsewhere or left out.

The chains behind the UniProt entries cited, without tags or fusion partners. Where a name states a change or a piece, a line headed by the entry shows the natural chain unless it says otherwise.
UniProt Q8WUD1: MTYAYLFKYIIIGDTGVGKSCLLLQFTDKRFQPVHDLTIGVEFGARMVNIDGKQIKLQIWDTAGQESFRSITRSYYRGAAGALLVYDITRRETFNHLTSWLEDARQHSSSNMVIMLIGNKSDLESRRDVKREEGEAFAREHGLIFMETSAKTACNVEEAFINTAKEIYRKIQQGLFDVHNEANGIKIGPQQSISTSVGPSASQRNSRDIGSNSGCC
UniProt Q9UDG2, whole entry, looked up: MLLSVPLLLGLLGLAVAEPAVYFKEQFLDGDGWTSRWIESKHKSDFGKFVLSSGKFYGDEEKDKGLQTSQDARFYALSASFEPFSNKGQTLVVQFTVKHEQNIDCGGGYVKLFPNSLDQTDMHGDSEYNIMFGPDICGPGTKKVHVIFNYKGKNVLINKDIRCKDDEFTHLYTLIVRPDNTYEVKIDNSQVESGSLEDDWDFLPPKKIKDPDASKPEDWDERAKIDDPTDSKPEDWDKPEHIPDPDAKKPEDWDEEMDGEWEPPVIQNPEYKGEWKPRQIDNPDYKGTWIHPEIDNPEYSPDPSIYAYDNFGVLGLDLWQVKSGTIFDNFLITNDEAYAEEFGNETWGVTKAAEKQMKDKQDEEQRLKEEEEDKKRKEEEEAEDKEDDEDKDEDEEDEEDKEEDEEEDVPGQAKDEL
UniProt Q92698: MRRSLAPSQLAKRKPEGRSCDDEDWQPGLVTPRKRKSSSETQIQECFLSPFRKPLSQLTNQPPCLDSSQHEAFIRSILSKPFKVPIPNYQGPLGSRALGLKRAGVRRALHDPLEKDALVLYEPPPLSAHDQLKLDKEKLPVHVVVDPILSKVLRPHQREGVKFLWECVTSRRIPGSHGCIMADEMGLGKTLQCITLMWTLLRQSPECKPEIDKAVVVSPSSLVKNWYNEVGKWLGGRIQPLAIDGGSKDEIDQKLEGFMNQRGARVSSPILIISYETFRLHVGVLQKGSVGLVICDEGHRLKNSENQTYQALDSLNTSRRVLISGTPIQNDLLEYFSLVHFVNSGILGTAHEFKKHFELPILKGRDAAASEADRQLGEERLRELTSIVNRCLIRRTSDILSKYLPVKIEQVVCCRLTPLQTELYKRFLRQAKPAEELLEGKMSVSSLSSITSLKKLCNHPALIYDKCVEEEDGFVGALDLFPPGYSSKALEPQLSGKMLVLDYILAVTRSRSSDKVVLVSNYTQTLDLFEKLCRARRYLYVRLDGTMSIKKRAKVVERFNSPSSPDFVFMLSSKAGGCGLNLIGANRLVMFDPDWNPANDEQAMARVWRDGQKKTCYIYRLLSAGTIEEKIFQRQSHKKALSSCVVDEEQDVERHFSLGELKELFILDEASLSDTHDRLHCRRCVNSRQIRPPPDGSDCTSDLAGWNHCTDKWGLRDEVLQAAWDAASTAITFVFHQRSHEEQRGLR
UniProt Q6ZRP7: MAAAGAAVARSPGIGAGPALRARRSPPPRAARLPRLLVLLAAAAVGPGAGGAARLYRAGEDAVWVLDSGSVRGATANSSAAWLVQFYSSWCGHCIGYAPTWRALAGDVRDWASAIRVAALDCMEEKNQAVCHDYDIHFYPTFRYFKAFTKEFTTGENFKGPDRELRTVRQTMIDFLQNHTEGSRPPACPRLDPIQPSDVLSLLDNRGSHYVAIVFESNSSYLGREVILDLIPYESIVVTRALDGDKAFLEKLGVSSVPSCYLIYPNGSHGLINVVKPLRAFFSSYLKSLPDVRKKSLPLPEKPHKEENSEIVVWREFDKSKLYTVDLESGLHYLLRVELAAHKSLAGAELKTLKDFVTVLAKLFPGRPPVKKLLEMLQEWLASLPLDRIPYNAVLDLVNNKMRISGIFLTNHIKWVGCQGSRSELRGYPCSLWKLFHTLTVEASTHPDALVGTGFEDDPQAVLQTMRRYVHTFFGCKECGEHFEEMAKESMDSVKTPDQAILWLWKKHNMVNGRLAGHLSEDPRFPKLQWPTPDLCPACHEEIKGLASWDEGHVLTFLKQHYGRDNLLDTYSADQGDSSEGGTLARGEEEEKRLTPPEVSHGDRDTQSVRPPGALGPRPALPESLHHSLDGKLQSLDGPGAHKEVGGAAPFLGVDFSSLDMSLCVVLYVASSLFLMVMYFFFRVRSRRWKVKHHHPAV
UniProt Q9BRS2: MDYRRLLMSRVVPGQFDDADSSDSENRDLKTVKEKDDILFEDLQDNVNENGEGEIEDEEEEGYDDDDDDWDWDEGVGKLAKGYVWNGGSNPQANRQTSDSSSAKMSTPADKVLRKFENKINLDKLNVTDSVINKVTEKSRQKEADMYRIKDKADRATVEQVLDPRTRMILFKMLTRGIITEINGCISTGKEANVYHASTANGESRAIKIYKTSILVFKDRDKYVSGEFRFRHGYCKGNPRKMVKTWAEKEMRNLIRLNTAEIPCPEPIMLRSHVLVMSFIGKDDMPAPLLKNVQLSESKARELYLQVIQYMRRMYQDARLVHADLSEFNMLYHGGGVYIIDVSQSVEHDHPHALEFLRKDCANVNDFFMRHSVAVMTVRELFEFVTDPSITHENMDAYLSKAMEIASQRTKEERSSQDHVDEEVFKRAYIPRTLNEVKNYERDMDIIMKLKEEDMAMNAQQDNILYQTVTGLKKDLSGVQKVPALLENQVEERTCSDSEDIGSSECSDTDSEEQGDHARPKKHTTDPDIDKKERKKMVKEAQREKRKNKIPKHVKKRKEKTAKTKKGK
UniProt O94822: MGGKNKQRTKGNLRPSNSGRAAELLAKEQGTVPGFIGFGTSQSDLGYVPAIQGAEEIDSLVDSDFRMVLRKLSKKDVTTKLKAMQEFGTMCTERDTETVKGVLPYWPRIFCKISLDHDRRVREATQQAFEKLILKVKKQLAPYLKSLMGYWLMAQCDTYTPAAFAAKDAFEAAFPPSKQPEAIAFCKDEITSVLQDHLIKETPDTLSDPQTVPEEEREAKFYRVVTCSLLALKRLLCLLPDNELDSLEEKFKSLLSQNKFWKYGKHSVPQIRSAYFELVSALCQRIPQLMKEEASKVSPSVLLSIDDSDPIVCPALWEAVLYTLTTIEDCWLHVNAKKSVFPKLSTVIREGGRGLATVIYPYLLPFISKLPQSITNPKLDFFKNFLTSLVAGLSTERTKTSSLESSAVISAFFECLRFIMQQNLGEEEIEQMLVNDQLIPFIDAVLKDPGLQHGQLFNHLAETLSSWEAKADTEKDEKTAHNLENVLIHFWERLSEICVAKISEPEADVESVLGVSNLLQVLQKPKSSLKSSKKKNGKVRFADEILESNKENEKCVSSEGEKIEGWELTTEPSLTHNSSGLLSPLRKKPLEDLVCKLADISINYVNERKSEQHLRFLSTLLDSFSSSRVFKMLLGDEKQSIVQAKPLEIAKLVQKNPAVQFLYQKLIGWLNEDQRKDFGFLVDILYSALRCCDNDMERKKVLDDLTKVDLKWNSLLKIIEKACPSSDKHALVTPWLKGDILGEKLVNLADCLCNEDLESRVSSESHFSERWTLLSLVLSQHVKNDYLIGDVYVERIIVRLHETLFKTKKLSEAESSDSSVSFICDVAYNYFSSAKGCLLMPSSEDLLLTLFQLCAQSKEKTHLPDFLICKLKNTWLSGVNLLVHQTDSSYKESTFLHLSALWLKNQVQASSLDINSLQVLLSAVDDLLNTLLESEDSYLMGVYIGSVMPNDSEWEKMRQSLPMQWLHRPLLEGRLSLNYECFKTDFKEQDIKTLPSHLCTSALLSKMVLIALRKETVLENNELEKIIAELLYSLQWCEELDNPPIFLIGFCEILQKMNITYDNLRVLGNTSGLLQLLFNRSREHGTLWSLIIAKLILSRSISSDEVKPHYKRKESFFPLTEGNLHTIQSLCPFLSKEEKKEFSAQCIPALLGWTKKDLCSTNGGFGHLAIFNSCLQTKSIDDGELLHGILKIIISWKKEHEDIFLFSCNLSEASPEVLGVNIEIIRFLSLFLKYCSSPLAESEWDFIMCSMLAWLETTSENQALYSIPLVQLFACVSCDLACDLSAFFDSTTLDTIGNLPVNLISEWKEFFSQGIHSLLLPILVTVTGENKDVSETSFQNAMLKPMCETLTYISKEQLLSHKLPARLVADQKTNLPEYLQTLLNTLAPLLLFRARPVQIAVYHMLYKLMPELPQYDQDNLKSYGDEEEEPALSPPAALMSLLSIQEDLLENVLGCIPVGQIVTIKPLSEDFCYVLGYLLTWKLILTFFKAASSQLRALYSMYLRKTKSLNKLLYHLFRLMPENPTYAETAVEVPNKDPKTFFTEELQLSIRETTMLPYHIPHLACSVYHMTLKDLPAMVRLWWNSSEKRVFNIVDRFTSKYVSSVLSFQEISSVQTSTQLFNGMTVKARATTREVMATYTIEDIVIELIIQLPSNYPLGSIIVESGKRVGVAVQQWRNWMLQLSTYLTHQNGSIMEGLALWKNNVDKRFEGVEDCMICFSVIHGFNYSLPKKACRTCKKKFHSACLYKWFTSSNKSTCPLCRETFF
UniProt P51151: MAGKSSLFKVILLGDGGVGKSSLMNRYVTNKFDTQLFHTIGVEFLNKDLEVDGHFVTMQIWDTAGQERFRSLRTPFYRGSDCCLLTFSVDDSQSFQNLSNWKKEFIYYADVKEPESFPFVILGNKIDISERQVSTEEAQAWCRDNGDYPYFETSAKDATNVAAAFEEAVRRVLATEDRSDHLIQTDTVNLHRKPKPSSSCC
UniProt Q6F5E8: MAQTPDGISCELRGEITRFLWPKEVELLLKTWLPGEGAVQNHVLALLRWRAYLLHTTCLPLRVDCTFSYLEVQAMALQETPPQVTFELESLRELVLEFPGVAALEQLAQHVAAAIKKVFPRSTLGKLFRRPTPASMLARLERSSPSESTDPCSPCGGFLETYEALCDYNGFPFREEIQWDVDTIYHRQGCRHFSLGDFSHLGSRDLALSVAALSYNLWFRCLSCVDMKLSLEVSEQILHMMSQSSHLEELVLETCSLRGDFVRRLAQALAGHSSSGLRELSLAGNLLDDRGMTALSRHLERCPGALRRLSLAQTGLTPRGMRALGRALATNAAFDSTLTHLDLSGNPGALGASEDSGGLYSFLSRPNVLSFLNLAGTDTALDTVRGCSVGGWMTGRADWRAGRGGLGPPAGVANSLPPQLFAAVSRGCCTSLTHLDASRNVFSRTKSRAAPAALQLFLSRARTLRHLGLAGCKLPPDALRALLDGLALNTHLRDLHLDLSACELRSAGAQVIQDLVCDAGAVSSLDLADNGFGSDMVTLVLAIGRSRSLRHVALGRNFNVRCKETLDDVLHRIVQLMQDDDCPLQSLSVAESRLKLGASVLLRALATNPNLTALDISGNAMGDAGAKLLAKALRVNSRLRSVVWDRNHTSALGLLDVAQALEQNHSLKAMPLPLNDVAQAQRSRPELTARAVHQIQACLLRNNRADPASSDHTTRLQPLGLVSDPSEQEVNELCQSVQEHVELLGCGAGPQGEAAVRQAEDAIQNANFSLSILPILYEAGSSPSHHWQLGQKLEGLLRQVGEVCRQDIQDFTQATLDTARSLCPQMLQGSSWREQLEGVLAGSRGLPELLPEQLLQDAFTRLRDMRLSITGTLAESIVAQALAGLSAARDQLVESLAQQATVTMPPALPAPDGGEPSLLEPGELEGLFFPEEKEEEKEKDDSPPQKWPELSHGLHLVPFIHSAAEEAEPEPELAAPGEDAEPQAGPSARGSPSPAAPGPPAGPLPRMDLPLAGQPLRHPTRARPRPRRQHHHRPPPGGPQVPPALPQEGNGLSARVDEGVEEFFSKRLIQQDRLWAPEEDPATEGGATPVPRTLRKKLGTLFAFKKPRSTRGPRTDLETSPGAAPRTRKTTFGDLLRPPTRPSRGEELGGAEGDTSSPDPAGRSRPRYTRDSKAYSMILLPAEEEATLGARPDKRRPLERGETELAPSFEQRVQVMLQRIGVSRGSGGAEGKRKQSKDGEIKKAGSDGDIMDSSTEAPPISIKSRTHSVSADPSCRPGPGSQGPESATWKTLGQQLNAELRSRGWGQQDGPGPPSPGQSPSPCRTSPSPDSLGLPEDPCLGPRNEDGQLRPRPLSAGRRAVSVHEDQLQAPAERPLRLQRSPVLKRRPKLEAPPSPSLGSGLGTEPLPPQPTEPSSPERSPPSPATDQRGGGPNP

Compound: COc1ccc(Cn2ccc3cc(C)c(C(=O)NO)cc32)cc1
Test: dose-dependent thermal stabilisation call (2D-TPP, DLPTP, 10% FDR) (binary (1 = stabilised)); higher = stabilised by the compound
Details: system: HL-60 intact cells; concentration range 0.04-10 µM
Protocol: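 2D thermal proteome profiling in intact HL-60 cells treated with BRD-3811 (0, 0.04, 0.29, 2, 10 uM) for 90 min at 37 C, then heated 3 min at one of 12 temperatures (42-63.9 C). Soluble protein was quantified by TMT10 MS. The value is the DLPTP call of the paper: dose-dependent thermal stabilisation over all temperatures at 10% FDR (F-test of a dose-response against a flat model); one experiment, one call per tested protein.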

Target	dose-dependent thermal stabilisation call
RAB2B (UniProt Q8WUD1)	inactive: 0
UniProt Q9UDG2_HUMAN	inactive: 0
RAD54L (UniProt Q92698)	inactive: 0
QSOX2 (UniProt Q6ZRP7)	inactive: 0
RIOK1 (UniProt Q9BRS2)	inactive: 0
RBM12B (UniProt Q8IXT5)	inactive: 0
RNF160 (UniProt O94822)	inactive: 0
RAB9A (UniProt P51151)	inactive: 0
RLTPR (UniProt Q6F5E8)	inactive: 0

As a short view, part of the list above:
Target	dose-dependent thermal stabilisation call
UniProt Q9UDG2_HUMAN	inactive: 0
RAD54L (UniProt Q92698)	inactive: 0
